Data reported in PubChem BioAssay AID493014 (National Center for Advancing Translational Sciences (NCATS), 2011).
Hit rate of the full screen: of about 340,000 compounds, about 170 (0.05%) were called active. Inconclusive results, whose numbers are uncertain, are shown with a selection of clear calls. Calls follow the shape of the dose curve; as a rule, active = well fitted inhibition curve with a large enough effect in the signal ratio, with a control signal flat (not every such curve was filed as active); inconclusive = small, poorly fitted or top-dose-only effect, or effect the other way, or a change in a side signal; inactive = flat fitted curve, though single readings scatter; the % refers to the signal ratio. Where the call is inconclusive, the potency comes from a doubtful curve fit.

Experiment: qHTS Assay to Find Inhibitors of Chronic Active B-Cell Receptor Signaling;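 as to activity change, negative = inhibition: plate controls were basal doxycycline-induced cells for no effect and cells given 10 µM MG132 for full effect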
Details: ABC-DLBCL IkBa-CBG/CBR reporter, luminescence ratio (green luciferase fused to IkBa over red control in TMD8 lymphoma cells), 4 h; activity change, negative = inhibition: at 46.1 µM (top of the series)
Procedure, shortened: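 Doxycycline induced both beetle luciferases in TMD8 lymphoma cells; IKK-driven degradation limits the IkappaBalpha-fused green signal, while red luminescence normalises for cell number and nonspecific effects. Compounds tested up to 46 uM, 4 hrs.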
Potency is read from the fitted curve at half-maximal effect.

SMILES | activity change, negative = inhibition | Potency
OCc1cc(-c2ccc(Cl)c(Cl)c2)on1 | inconclusive: -0.175% | –
O=C(CSc1nncc2ccccc12)Nc1ccc(F)cc1 | – | inconclusive: 17.8 µM [falling, single point]
COc1ccc(N2C(=O)CC(Sc3nc4ccccc4s3)C2=O)cc1 (stereo unspecified) | inactive | –
Cc1cccc(NC(=S)NCc2ccc3c(c2)OCO3)c1 | inconclusive: 12.5% | –
CCOC(=O)c1ccc(NC(=O)CSc2ccc3ccccc3n2)cc1 | inconclusive: 15.4% | –
COc1ccccc1NC(=O)CCC(=O)Nc1cc(OC)c(NC(=O)c2cccs2)cc1OC | inconclusive: 2.01% | –
Cc1ccccc1-c1ccc(/C=C2/SC(N3CCOCC3)=NC2=O)o1 | inactive | –
CCN1CCN(CCNC(=O)c2ccc3nc(-c4cccc(C)c4)c(-c4cccc(C)c4)nc3c2)CC1 | inactive | –
COc1ccc2oc(=O)c(C(=O)Nc3ccccc3O)cc2c1 | – | inconclusive: 35.5 µM [rising, single point]
CCOC(=O)c1c(N)c2cc([N+](=O)[O-])ccc2n1C | inconclusive: 0% | –
O=C(CC1CCCCC1)NCc1ccccn1 | inconclusive: -0.0824% | –
CCOC(=O)CNC(=O)N1CCC(CCC(=O)N(C)Cc2ccccc2)CC1 | inconclusive: 7.38% | –
COc1ccc(-c2nonc2NC(=O)c2oc3ccc(F)cc3c2C)cc1OC | inconclusive: 7.58% | –
CN1CCN(c2ccc(Cl)cc2NC(=O)C2COc3ccccc3O2)CC1 (stereo unspecified) | inconclusive: -6.59% | –
O=C(NNC(=O)c1cccs1)Nc1cccc(Cl)c1 | – | inconclusive: 25.1 µM [falling, single point]
CCC(C)NC(=O)c1ccc(CSCc2cccc(F)c2)o1 (stereo unspecified) | inconclusive: 8% | –
Cc1nc2cc(NC(=O)NCc3ccccc3)ccc2o1 | – | inconclusive: 15.8 µM [falling, single point]
CCN(CC)CCNC(=O)Cc1c(C(=O)O)n(CC)c2ccccc12 | inconclusive: 10% | –
NC(=O)SCC(=O)Nc1ccccc1C(=O)O | – | inconclusive: 35.5 µM [falling, single point]
CCOc1ccc(S(=O)(=O)N2CCCC(C(=O)NC3CC3)C2)cc1Cl (stereo unspecified) | inconclusive: -11.8% | –
CCCc1ccc2oc(C(=O)N(C)Cc3nccs3)c(C)c2c1 | inconclusive: 8.66% | –
Cc1ccc(S(=O)(=O)CNC(=S)c2cccc(Cl)c2)cc1 | – | inconclusive: 29.1 µM [falling, single point]
O=C(C(=O)N1CCN(c2ccccc2)CC1)c1c[nH]c2ccccc12 | – | inconclusive: 35.5 µM [falling, single point]
COC(=O)c1cc(=O)n(-c2ccccc2)c(=Nc2ccccc2)s1 | – | inconclusive: 23.1 µM [falling, partial curve, poor fit]
COc1ccc(S(=O)(=O)N(C)CC(=O)N2CCCC2)cc1Cl | inconclusive: 3.65% | –
CC(C)Cn1c(-c2ccccc2)nc(=S)c2c1CCCC2 | inconclusive: 1.9% | –

SMILES | activity change, negative = inhibition | Potency
COc1cccc(CNC(=O)CC2Sc3ccccc3NC2=O)c1 (stereo unspecified) | – | inconclusive: 8.91 µM [falling, partial curve, poor fit]
N#Cc1cc2c(nc1SCc1ccccc1)CCC2 | inactive | –
O=C(CNc1cccc(S(=O)(=O)N2CCOCC2)c1)Nc1ccc(C(F)(F)F)cc1 | inactive | –
CCc1cccc(C)c1NC(=O)CCOc1ccccc1 | inconclusive: -0.281% | –
Cc1cccc(Nc2nnc(SCC(=O)NC3CCCc4ccccc43)s2)c1C (stereo unspecified) | inconclusive: -0.836% | –
Cc1ccc([N+](=O)[O-])c(OCCN2CCC(Cc3ccccc3)CC2)c1 | – | inconclusive: 11.2 µM [falling, partial curve]
COC(=O)[C@@H]1Cc2c([nH]c3ccccc23)C(C)N1C(=O)c1ccccc1 (stereo partly specified) | inconclusive: -11.3% | –
CCN=C(NCC)SC1CC(=O)N(c2ccc(OC)cc2)C1=O (stereo unspecified) | – | inconclusive: 29.1 µM [falling, single point]
Cc1cccc(C)c1OCC(O)CNS(=O)(=O)c1ccccc1C(=O)N1CCOCC1 (stereo unspecified) | inconclusive: -22.8% | –
CC(C)C[C@H]1C(=O)N2CCC[C@H]2[C@]2(O)O[C@](NC(=O)[C@@H]3C=C4c5cccc6[nH]c(Br)c(c56)CC4N(C)C3)(C(C)C)C(=O)N12 (stereo partly specified) | inconclusive: -0.462% | –
O=C(Nc1ccc(F)c(Cl)c1)C1CCCCC1 | inactive | –
Cc1ccc(-c2nn(CC(=O)NN3CCOCC3)c(=O)c3ccccc23)cc1 | inconclusive: 1.54% | –
CCOC(=O)C1CCN(C(=O)COc2cccc(C)c2)CC1 | – | inconclusive: 18.4 µM [falling, single point]
CCC(C)[C@H](NS(=O)(=O)c1ccc(C)cc1)C(=O)N1CCC(C(=O)N[C@@H](Cc2ccccc2)C(=O)O)CC1 (stereo partly specified) | inactive | –
Cc1ccc(-n2nc(C)c3c(C)c(CCC(=O)NCc4ccccc4)c(C)nc32)cc1 | – | inconclusive: 29.1 µM [falling, partial curve, poor fit]
COc1ccc2[nH]c(=O)c(CN(C(=O)C3CCCO3)c3cccc(C)c3)cc2c1 (stereo unspecified) | inactive | –
CCOC(=O)c1c(N)sc2c(NC(C)=O)cccc12 | inconclusive: -1.35% | –
CN(C)CCNC(=O)C1CCN(Cc2cc3ccccc3n2Cc2ccccc2)CC1 | – | inconclusive: 28.2 µM [falling, single point]
COc1cccc(Nc2nc3ccccc3n3cnnc23)c1 | – | inconclusive: 35.5 µM [falling, single point]
O=C1C=C(NCCN2CCOCC2)C(=O)c2cnccc21 | inconclusive: -0.463% | –
COc1cc([N+](=O)[O-])c(OC)cc1SCc1n[nH]c(=S)n1-c1ccc(F)cc1 | inconclusive: 6.91% | –
NNC(=O)c1oc2nc(-c3ccc(Cl)cc3)cc(-c3ccccc3)c2c1N | inactive | –
C=COCCCNc1ncnc2sc(-c3ccccc3)cc12 | inconclusive: 1.59% | –
COc1ccc2oc(-c3ccc(NC(=O)c4ccc(N5CCOCC5)c([N+](=O)[O-])c4)cc3)nc2c1 | inactive | –
Cc1cc(C(=O)COC(=O)c2ccccc2NCCO)c(C)n1CC1CCCO1 (stereo unspecified) | – | inconclusive: 22.4 µM [falling, single point]

A second format for some results above.

| SMILES | activity change, negative = inhibition | Potency |
| --- | --- | --- |
| Cc1ccc([N+](=O)[O-])c(OCCN2CCC(Cc3ccccc3)CC2)c1 | – | inconclusive: 11.2 µM [falling, partial curve] |
| COC(=O)[C@@H]1Cc2c([nH]c3ccccc23)C(C)N1C(=O)c1ccccc1 (stereo partly specified) | inconclusive: -11.3% | – |
| CCN=C(NCC)SC1CC(=O)N(c2ccc(OC)cc2)C1=O (stereo unspecified) | – | inconclusive: 29.1 µM [falling, single point] |
| Cc1cccc(C)c1OCC(O)CNS(=O)(=O)c1ccccc1C(=O)N1CCOCC1 (stereo unspecified) | inconclusive: -22.8% | – |
| CC(C)C[C@H]1C(=O)N2CCC[C@H]2[C@]2(O)O[C@](NC(=O)[C@@H]3C=C4c5cccc6[nH]c(Br)c(c56)CC4N(C)C3)(C(C)C)C(=O)N12 (stereo partly specified) | inconclusive: -0.462% | – |
| O=C(Nc1ccc(F)c(Cl)c1)C1CCCCC1 | inactive | – |
| Cc1ccc(-c2nn(CC(=O)NN3CCOCC3)c(=O)c3ccccc23)cc1 | inconclusive: 1.54% | – |
| CCOC(=O)C1CCN(C(=O)COc2cccc(C)c2)CC1 | – | inconclusive: 18.4 µM [falling, single point] |
| CCC(C)[C@H](NS(=O)(=O)c1ccc(C)cc1)C(=O)N1CCC(C(=O)N[C@@H](Cc2ccccc2)C(=O)O)CC1 (stereo partly specified) | inactive | – |
| Cc1ccc(-n2nc(C)c3c(C)c(CCC(=O)NCc4ccccc4)c(C)nc32)cc1 | – | inconclusive: 29.1 µM [falling, partial curve, poor fit] |
| COc1ccc2[nH]c(=O)c(CN(C(=O)C3CCCO3)c3cccc(C)c3)cc2c1 (stereo unspecified) | inactive | – |
| CCOC(=O)c1c(N)sc2c(NC(C)=O)cccc12 | inconclusive: -1.35% | – |
